Assay results from the supplement of paper PMC7666118.
Some of the results follow.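 Rule for the calls: active = dose-dependent thermal stabilisation significant by F-test of dose-response against flat model at 10% FDR; inactive = not significant.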

Sequences of proteins named here, by UniProt entry; tags and fusion partners are left off. A change or cut given only in a name is not applied to a line headed by its entry.
UniProt Q9ULH1: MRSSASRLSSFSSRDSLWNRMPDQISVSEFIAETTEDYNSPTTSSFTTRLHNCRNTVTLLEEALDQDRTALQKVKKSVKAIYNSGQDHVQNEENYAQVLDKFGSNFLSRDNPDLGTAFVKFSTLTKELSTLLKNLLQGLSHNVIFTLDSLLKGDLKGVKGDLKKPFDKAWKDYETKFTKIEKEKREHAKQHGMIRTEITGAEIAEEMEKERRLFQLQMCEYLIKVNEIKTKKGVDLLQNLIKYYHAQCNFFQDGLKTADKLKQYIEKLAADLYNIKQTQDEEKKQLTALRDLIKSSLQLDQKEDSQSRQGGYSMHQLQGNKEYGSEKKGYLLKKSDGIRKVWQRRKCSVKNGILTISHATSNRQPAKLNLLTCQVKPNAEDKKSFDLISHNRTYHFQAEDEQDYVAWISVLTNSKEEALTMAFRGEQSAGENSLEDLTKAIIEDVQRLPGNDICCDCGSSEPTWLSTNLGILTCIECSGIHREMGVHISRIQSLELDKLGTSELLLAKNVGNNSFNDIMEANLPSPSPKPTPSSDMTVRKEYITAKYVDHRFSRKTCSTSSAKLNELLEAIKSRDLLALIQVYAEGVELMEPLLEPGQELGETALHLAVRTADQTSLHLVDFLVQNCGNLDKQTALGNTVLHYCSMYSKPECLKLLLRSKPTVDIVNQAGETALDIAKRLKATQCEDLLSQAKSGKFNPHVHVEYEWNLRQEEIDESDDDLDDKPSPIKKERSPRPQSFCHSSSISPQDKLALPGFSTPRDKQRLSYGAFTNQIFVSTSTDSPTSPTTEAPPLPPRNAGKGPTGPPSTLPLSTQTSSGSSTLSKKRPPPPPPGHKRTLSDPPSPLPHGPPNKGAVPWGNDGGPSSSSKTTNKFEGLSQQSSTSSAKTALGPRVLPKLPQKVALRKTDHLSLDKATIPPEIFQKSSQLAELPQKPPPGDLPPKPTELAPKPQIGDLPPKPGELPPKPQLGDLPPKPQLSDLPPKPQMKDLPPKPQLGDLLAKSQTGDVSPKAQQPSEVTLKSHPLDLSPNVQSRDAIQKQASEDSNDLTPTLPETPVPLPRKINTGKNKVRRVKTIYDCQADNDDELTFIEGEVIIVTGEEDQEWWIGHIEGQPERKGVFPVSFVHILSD
UniProt Q8WWM7: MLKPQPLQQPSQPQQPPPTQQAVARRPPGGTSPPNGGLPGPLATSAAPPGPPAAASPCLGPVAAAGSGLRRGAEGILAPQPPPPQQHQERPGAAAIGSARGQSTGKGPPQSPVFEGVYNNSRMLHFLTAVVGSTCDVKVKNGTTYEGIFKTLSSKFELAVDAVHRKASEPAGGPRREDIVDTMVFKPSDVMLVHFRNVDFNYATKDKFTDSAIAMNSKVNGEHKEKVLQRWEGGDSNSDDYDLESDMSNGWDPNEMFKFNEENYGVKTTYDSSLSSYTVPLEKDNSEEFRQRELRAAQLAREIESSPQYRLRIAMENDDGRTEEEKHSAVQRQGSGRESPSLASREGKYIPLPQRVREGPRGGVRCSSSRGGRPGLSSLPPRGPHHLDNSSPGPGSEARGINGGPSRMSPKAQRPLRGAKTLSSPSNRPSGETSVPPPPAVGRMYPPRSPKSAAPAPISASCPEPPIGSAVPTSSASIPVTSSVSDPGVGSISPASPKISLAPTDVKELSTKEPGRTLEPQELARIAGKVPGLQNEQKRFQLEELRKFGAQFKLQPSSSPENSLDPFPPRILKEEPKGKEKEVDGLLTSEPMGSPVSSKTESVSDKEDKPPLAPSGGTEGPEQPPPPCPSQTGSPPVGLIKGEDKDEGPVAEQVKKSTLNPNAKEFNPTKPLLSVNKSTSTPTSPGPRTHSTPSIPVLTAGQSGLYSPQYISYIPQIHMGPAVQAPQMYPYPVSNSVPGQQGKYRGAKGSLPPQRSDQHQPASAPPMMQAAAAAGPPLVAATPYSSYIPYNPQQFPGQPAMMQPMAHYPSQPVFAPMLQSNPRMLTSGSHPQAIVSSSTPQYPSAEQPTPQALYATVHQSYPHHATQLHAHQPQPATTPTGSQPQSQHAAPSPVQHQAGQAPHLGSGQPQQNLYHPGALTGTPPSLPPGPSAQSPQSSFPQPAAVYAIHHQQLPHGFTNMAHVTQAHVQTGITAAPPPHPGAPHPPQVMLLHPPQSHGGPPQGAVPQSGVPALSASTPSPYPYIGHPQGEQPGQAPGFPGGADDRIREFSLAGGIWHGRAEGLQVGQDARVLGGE
UniProt P27708: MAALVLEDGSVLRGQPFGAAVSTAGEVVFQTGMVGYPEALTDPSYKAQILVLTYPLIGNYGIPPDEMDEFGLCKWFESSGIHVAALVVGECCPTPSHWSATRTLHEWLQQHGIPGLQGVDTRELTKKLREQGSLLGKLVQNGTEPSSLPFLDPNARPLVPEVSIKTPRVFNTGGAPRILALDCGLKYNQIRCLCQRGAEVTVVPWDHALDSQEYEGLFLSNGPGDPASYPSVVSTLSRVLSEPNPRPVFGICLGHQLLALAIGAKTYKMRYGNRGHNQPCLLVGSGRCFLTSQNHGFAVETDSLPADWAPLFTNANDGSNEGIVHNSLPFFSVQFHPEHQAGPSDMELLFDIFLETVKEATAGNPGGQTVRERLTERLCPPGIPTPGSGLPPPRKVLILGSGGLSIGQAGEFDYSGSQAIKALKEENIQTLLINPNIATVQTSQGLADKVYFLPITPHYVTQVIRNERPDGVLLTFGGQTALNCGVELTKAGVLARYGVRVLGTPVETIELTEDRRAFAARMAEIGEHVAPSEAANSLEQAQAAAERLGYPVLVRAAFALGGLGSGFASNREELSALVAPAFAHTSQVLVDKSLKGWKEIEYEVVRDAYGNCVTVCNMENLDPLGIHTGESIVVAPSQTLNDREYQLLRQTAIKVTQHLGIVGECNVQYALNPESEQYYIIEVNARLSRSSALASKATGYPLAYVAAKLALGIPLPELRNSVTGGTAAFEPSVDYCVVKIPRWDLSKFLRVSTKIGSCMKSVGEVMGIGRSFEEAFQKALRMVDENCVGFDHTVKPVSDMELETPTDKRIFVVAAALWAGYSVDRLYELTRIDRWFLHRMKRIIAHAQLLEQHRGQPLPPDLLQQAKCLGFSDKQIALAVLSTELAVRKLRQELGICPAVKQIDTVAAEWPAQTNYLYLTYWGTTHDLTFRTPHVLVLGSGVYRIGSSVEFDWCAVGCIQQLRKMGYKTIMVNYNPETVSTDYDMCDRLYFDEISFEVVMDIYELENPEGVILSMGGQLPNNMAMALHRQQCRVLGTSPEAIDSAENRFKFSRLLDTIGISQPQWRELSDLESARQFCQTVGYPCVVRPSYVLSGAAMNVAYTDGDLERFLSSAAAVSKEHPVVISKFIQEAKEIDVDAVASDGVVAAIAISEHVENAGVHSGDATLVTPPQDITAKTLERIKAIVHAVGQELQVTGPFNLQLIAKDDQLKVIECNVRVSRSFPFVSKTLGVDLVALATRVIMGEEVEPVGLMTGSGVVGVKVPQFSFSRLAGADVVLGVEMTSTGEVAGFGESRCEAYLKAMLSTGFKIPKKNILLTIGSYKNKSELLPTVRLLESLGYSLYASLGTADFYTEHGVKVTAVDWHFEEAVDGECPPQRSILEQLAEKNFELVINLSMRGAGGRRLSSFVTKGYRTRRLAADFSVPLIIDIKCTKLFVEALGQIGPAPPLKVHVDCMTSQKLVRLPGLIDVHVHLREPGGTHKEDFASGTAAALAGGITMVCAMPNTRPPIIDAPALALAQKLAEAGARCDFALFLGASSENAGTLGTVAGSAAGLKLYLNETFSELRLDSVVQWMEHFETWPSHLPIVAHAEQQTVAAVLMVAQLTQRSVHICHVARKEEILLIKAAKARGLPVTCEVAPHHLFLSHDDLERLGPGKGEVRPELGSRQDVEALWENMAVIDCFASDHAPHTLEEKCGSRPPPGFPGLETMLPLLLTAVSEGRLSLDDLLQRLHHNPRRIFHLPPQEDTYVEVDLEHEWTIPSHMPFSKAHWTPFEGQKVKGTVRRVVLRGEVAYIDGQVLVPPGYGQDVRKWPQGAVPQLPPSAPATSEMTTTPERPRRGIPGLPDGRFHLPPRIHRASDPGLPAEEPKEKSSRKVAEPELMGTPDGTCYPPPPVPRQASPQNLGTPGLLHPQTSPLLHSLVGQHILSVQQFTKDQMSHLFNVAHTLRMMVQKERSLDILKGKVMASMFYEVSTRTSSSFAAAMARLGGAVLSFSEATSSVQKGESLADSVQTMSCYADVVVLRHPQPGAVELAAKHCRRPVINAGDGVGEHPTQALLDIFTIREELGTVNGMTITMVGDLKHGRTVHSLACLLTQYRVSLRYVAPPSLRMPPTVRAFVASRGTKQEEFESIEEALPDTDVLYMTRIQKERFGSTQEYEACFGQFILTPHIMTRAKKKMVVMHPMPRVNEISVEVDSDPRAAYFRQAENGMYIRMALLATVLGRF
UniProt Q99700, whole entry: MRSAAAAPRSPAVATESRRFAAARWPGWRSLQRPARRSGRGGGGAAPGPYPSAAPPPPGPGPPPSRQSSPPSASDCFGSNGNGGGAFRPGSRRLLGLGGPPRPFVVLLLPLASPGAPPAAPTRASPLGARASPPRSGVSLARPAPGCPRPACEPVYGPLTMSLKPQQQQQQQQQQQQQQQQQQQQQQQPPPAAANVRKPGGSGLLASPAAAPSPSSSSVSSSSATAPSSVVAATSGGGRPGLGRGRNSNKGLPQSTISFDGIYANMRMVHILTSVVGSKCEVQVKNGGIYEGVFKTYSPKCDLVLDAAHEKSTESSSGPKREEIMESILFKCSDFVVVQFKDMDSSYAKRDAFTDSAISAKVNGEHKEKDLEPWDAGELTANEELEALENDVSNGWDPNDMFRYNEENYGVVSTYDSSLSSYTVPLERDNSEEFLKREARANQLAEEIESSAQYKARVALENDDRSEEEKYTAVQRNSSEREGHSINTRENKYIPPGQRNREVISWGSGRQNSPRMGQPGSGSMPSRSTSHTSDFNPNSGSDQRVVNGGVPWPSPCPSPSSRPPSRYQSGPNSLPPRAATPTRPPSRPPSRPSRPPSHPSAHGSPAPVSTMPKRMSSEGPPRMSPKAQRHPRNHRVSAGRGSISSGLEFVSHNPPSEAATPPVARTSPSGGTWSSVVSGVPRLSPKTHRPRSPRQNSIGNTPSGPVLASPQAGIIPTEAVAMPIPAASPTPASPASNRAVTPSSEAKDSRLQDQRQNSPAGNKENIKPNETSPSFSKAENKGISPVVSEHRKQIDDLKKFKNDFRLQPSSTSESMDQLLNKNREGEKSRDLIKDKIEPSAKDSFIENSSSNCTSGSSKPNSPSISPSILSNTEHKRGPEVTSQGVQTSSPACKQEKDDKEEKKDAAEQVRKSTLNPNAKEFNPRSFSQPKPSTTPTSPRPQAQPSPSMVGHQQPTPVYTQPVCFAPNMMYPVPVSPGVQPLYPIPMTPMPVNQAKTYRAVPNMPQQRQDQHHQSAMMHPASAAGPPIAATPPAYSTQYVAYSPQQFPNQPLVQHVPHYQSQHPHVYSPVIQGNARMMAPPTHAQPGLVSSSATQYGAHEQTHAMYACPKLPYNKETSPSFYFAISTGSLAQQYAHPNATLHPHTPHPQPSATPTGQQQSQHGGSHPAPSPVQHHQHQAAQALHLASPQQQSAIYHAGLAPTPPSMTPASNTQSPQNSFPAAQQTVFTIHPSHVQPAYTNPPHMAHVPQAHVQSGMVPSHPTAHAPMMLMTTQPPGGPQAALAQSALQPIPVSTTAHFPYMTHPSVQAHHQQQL
UniProt P32121, whole entry: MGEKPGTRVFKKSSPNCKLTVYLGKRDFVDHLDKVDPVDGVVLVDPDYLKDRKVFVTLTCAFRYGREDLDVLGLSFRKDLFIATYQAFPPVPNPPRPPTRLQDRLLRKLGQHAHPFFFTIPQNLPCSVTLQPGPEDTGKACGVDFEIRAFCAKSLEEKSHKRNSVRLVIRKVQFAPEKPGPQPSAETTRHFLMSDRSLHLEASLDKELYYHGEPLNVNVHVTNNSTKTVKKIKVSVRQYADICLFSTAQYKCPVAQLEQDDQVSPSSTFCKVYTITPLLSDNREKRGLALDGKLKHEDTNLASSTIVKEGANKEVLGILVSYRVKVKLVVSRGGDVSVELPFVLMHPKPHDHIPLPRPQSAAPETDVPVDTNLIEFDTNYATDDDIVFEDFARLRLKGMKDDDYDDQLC
UniProt Q96K31: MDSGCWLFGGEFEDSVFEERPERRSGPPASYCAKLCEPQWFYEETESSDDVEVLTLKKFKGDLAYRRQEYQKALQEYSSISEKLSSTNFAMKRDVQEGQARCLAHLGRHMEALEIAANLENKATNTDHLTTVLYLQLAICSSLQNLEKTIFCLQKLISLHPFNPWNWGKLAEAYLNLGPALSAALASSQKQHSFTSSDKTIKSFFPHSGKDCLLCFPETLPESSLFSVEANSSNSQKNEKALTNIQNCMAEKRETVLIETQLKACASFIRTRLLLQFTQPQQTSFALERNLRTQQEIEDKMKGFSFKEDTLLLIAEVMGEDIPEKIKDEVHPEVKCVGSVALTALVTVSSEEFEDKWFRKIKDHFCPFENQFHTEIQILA

compound: Nc1nc2c(ncn2[C@@H]2O[C@H](COP(=O)(O)OP(=O)(O)OP(=O)(O)O)[C@@H](O)[C@H]2O)c(=O)[nH]1; assay: dose-dependent thermal stabilisation call (2D-TPP, DLPTP, 10% FDR) (binary (1 = stabilised)); higher = stabilised by the compound; conditions: system: Jurkat gel-filtered lysate; concentration range 1-500 µM
Experimental: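 2D thermal proteome profiling in gel-filtered Jurkat E6.1 lysate (2 mg/ml) treated with NaGTP (0, 1, 10, 100, 500 uM) for 10 min at room temperature, then heated 3 min at one of 12 temperatures (42-63.9 C). Soluble protein was quantified by TMT10 MS. The value is the DLPTP call of the paper: dose-dependent thermal stabilisation over all temperatures at 10% FDR (F-test of a dose-response against a flat model); one experiment, one call per tested protein.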

Target | dose-dependent thermal stabilisation call
ASAP1 (UniProt Q9ULH1) | inactive: 0
ATXN2L (UniProt Q8WWM7) | inactive: 0
CAD (UniProt P27708) | inactive: 0
CANX (UniProt P27824) | inactive: 0
AUTS2 (UniProt Q8WXX7) | inactive: 0
C8orf82 (UniProt Q6P1X6) | inactive: 0
CAMSAP1 (UniProt Q5T5Y3) | inactive: 0
ATP6V1H (UniProt Q9UI12) | inactive: 0
ARIH2 (UniProt O95376) | inactive: 0
ATF1 (UniProt P18846) | inactive: 0
ATG4C (UniProt Q96DT6) | inactive: 0
CAND1 (UniProt Q86VP6) | active: 1
C8orf37 (UniProt Q96NL8) | inactive: 0
BRK1 (UniProt Q8WUW1) | inactive: 0
BORCS6 (UniProt Q96GS4) | inactive: 0
C1orf198 (UniProt Q9H425) | inactive: 0
C6orf203 (UniProt Q9P0P8) | inactive: 0
ATXN1L (UniProt P0C7T5) | inactive: 0
BAZ1A (UniProt Q9NRL2) | inactive: 0
BCL10 (UniProt O95999) | inactive: 0

Target | dose-dependent thermal stabilisation call
C19orf53 (UniProt Q9UNZ5) | inactive: 0
BLOC1S5 (UniProt Q8TDH9) | inactive: 0
BCOR (UniProt Q6W2J9) | inactive: 0
B2M (UniProt P61769) | inactive: 0
ARHGEF7 (UniProt Q14155) | inactive: 0
C8orf33 (UniProt Q9H7E9) | inactive: 0
B3GLCT (UniProt Q6Y288) | active: 1
BAG6 (UniProt P46379) | active: 1
ATXN2 (UniProt Q99700) | inactive: 0
C18orf8 (UniProt Q96DM3) | active: 1
BSDC1 (UniProt Q9NW68) | inactive: 0
ARRB2 (UniProt P32121) | inactive: 0
BIN1 (UniProt O00499) | inactive: 0
ASB6 (UniProt Q9NWX5) | inactive: 0
CARMIL2 (UniProt Q6F5E8) | inactive: 0
CAP1 (UniProt Q01518) | inactive: 0
C8orf76 (UniProt Q96K31) | inactive: 0
BRIP1 (UniProt Q9BX63) | inactive: 0
ASH2L (UniProt Q9UBL3) | inactive: 0
CAPRIN1 (UniProt Q14444) | inactive: 0

Quoted from the listing.
ATXN2 (UniProt Q99700) | dose-dependent thermal stabilisation call: inactive: 0
CAPRIN1 (UniProt Q14444) | dose-dependent thermal stabilisation call: inactive: 0
